Source: paper PMC11315935, “Multi-layered heterochromatin interaction as a switch for DIM2-mediated DNA methylation” (Nature Communications, 2024)
Results are given in words; binding and its absence hold for the method and conditions named. Some results given as binding are weak or reduced against the parent protein; the word gives no strength.

How the values were obtained:
[1] = molecular target: histone H3 peptide (residues 1-24) with H3K9me3, plus a C-terminal tryptophan (UniProt P68431); test: condition: 0.04–0.05 mM DIM2 titrated with 0.5 mM histone peptide; ITC; 0.04-0.05 mM protein titrated with 0.5 mM histone peptide at 7 °C, 20 mM Tris-HCl pH 7.5, 100 mM NaCl, 1 mM β-mercaptoethanol; single-site fit; apparent; both purified
[2] = molecular target: histone H3 peptide (residues 1-24) with H3K9me3, plus a C-terminal tryptophan (UniProt P68431); test: ITC; 0.04-0.05 mM protein titrated with 0.5 mM histone peptide at 7 °C, 20 mM Tris-HCl pH 7.5, 100 mM NaCl, 1 mM β-mercaptoethanol; single-site fit; apparent; both purified

binding [1]	binding [2]	Binder
no binding		DIM2 (residues 1-1242) W261A/W581A double mutant (domain or fragment, UniProt Q3Y3Z1 1-1242) MDSPDRSHGGMFIDVPAETMGFQEDYLDMFASVLSQGLAKEGDYAHHQPLPAGKEECLEPIAVATTITPSPDDPQLQLQLELEQQFQTESGLNGVDPAPAPESEDEADLPDGFSDESPDDDFVVQRSKHITVDLPVSTLINPRSTFQRIDENDNLVPPPQSTPERVAVEDLLKAAKAAGKNKEDYIEFELHDFNFYVNYAYHPQEMRPIQLVATKVLHDKYYFDGVLKYGNTKHYVTGMQVLELPVGNYGASLHSVKGQIAVRSKHNAKKEIYYLLKKPAFEYQRYYQPFLWIADLGKHVVDYCTRMVERKREVTLGCFKSDFIQWASKAHGKSKAFQNWRAQHPSDDFRTSVAANIGYIWKEINGVAGAKRAAGDQLFRELMIVKPGQYFRQEVPPGPVVTEGDRTVAATIVTPYIKECFGHMILGKVLRLAGEDAEKEKEVKLAKRLKIENKNATKADTKDDMKNDTATESLPTPLRSLPVQVLEATPIESDIVSIVSSDLPPSENNPPPLTNGSVKPKAKANPKPKPSTQPLHAAHVKYLSQELVNKIKVGDVISTPRDDSSNTDTKWKPTDTDDHRAFGLVQRVHTAKTKSSGRGLNSKSFDVIWFYRPEDTPCCAMKYKWRNELFLSNHCTCQEGHHARVKGNEVLAVHPVDWFGTPESNKGEFFVRQLYESEQRRWITLQKDHLTCYHNQPPKPPTAPYKPGDTVLATLSPSDKFSDPYEVVEYFTQGEKETAFVRLRKLLRRRKVDRQDAPANELVYTEDLVDVRAERIVGKCIMRCFRPDERVPSPYDRGGTGNMFFITHRQDHGRCVPLDTLPPTLRQGFNPLGNLGKPKLRGMDLYCGGGNFGRGLEEGGVVEMRWANDIWDKAIHTYMANTPDPNKTNPFLGSVDDLLRLALEGKFSDNVPRPGEVDFIAAGSPCPGFSLLTQDKKVLNQVKNQSLVASFASFVDFYRPKYGVLENVSGIVQTFVNRKQDVLSQLFCALVGMGYQAQLILGDAWAHGAPQSRERVFLYFAAPGLPLPDPPLPSHSHYRVKNRNIGFLCNGESYVQRSFIPTAFKFVSAGEGTADLPKIGDGKPDACVRFPDHRLASGITPYIRAQYACIPTHPYGMNFIKAWNNGNGVMSKSDRDLFPSEGKTRTSDASVGWKRLNPKTLFPTVTTTSNPSDARMGPGLHWDEDRPYTVQEMRRAQGYLDEEVLVGRTTDQWKLVGNSVSRHMALAIGLKFREAWLGTLYD
	binds	DIM2 RFTS domain (residues 1-389) (domain or fragment, UniProt Q3Y3Z1 1-389) MDSPDRSHGGMFIDVPAETMGFQEDYLDMFASVLSQGLAKEGDYAHHQPLPAGKEECLEPIAVATTITPSPDDPQLQLQLELEQQFQTESGLNGVDPAPAPESEDEADLPDGFSDESPDDDFVVQRSKHITVDLPVSTLINPRSTFQRIDENDNLVPPPQSTPERVAVEDLLKAAKAAGKNKEDYIEFELHDFNFYVNYAYHPQEMRPIQLVATKVLHDKYYFDGVLKYGNTKHYVTGMQVLELPVGNYGASLHSVKGQIWVRSKHNAKKEIYYLLKKPAFEYQRYYQPFLWIADLGKHVVDYCTRMVERKREVTLGCFKSDFIQWASKAHGKSKAFQNWRAQHPSDDFRTSVAANIGYIWKEINGVAGAKRAAGDQLFRELMIVKPGQ
